The target of assay [1] is Natriuretic peptide receptor A (human (endogenous in AGS)) (UniProt P16066). The assay can be described thus: co-IP; immunoprecipitation of cell lysates (AGS) with protein A/G-agarose beads, anti-NPRA or anti-HIF-1α antibody; western blot detection. (In general: Immunoblotting shows a protein as a band on a membrane.)
The target of assay [2] is Hypoxia-inducible factor-1 alpha (human (endogenous in AGS)) (UniProt Q16665). The assay is described as above.

Protein sequences, listed by entry. Tags and fused reporters are not part of them. Residues count along the entry.
UniProt P16066, residues 33-1061: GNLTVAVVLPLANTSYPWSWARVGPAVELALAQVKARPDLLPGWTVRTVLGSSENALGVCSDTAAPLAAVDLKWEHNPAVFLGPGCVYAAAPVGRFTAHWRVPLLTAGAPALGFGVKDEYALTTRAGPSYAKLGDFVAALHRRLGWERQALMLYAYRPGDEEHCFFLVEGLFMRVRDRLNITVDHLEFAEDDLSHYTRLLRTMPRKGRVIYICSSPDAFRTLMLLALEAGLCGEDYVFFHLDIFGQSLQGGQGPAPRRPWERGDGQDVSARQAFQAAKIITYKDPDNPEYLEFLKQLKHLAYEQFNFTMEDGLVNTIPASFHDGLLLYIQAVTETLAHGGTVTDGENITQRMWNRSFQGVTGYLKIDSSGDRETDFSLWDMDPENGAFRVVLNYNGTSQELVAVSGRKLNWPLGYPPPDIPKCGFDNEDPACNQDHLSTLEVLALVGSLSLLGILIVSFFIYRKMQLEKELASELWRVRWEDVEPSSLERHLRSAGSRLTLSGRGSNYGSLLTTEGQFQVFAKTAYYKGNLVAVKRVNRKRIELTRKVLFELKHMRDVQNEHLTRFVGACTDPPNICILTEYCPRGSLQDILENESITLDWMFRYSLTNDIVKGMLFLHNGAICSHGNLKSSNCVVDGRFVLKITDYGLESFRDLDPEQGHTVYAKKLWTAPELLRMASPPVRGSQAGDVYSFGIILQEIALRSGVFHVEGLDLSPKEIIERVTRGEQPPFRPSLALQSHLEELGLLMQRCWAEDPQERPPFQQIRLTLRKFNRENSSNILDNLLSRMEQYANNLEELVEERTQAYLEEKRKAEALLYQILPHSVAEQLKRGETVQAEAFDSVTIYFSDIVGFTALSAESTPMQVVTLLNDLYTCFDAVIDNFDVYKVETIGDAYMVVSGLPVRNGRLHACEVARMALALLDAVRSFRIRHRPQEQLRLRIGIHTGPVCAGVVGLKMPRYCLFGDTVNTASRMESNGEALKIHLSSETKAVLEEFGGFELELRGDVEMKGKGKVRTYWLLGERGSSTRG
UniProt Q16665: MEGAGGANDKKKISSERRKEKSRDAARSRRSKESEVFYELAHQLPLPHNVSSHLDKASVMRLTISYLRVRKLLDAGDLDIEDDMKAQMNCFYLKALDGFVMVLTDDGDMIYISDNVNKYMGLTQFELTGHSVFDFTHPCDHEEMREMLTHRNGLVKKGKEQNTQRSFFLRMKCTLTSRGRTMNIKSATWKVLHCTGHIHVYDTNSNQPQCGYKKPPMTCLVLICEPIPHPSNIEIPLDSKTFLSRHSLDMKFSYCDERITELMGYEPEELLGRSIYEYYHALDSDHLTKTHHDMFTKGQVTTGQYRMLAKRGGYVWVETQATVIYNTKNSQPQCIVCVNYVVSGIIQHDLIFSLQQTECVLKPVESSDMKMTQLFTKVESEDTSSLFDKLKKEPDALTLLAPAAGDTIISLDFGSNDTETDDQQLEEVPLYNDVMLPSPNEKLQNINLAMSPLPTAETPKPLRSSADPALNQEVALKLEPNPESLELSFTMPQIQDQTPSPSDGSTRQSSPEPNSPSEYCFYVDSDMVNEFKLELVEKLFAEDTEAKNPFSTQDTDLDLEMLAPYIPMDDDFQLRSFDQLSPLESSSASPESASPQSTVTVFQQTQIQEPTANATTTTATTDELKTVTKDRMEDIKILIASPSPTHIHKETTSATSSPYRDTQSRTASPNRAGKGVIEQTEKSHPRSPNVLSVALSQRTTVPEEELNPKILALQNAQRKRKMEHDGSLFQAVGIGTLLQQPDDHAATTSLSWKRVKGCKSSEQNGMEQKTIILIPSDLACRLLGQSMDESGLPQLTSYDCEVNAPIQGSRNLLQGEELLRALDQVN

No constants are given. Whether binding was seen depends on the method and setting. Binding seen in cells or lysates may run through a third protein. Some results given as binding are weak or reduced against the parent protein; the word gives no strength.

On to “Hypoxia-inducible factor-1 alpha (from UniProt Q16665 1-826)”, for which the binding result in assay [1] is “binds”.

For “Natriuretic peptide receptor A (from UniProt P16066 33-1061)”, the binding entry in assay [2] was “binds”.
